# Measured values reported in PMC4140647.
# These are yes or no findings as the source states them, for the method shown. In cells and extracts the contact can be indirect. A yes stands for co-enrichment or nearness to the bait. Other partners may have been found. Tags and fused reporters may be left off the sequences shown.
# T1: HEN2-GFP (Arabidopsis thaliana) (UniProt Q9ZVW2)
# T1 sequence: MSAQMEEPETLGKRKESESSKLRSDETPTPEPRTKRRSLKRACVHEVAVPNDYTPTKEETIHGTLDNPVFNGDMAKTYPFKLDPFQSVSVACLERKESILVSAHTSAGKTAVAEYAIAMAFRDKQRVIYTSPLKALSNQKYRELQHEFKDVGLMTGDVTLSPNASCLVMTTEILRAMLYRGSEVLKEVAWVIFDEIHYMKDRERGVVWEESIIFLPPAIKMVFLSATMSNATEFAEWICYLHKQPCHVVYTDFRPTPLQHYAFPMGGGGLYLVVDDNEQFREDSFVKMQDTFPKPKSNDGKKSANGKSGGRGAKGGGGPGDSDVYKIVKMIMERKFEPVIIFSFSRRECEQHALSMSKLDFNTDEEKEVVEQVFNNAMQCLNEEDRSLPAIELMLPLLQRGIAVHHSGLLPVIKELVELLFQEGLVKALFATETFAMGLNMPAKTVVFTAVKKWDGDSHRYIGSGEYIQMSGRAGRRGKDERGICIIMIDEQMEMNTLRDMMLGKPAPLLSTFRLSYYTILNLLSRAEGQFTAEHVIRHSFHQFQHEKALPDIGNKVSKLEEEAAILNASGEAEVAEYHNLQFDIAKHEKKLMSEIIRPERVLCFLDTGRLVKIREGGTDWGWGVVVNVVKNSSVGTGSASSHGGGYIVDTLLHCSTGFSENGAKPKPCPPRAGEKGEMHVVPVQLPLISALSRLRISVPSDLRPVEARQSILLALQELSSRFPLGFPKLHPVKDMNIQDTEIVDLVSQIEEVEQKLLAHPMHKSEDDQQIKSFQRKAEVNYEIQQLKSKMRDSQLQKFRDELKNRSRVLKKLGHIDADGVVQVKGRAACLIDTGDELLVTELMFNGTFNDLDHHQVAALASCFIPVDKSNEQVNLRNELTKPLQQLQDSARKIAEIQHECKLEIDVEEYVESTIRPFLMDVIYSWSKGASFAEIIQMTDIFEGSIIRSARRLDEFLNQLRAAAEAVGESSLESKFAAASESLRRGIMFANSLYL
# T2: AtMTR4-GFP (Arabidopsis thaliana) (UniProt Q9XIF2)
# T2 sequence: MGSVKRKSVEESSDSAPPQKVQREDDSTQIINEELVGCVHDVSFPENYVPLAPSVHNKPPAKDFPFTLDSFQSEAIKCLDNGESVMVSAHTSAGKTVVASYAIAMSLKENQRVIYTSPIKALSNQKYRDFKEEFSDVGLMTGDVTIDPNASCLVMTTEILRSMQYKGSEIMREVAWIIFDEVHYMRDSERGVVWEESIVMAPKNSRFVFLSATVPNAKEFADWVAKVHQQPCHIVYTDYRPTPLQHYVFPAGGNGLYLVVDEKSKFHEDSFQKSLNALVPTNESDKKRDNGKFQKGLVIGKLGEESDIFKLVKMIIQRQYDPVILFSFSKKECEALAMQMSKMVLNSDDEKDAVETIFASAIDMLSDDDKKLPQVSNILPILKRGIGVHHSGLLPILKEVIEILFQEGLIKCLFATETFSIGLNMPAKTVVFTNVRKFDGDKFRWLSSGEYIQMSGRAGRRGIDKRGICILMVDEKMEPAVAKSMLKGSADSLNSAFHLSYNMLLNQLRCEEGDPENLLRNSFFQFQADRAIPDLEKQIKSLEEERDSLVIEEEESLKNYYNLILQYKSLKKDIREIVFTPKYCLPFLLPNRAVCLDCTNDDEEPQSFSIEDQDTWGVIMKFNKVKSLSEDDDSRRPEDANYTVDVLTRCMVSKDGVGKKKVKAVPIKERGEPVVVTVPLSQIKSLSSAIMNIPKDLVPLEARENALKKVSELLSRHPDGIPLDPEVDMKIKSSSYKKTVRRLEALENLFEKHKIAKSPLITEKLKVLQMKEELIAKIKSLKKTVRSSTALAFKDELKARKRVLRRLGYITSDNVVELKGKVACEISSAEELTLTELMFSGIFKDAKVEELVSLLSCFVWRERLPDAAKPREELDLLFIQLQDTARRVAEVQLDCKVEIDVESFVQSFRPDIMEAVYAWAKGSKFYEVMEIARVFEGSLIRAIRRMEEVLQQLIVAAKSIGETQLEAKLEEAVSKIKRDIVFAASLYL
# B1: CBP80 (protein, UniProt Q9SIU2 1-848)
# chain: MSNWKTLLLRIGEKGPEYGTSSDYKDHIETCFGVIRREIERSGDQVLPFLLQCAEQLPHKIPLYGTLIGLLNLENEDFVQKLVESVHANFQVALDSGNCNSIRILLRFMTSLLCSKVIQPASLIVVFETLLSSAATTVDEEKGNPSWQPQADFYVICILSSLPWGGSELAEQVPDEIERVLVGIQAYLSIRKNSSTSGLNFFHNGEFESSLAEKDFVEDLLDRIQSLASNGWKLESVPRPHLSFEAQLVAGKFHELRPIKCMEQPSPPSDHSRAYSGKQKHDALTRYPQRIRRLNIFPANKMEDVQPIDRFVVEEYLLDVLFYLNGCRKECASYMANLPVTFRYEYLMAETLFSQILLLPQPPFKTLYYTLVIMDLCKALPGAFPAVVAGAVRALFEKISDLDMESRTRLILWFSHHLSNFQFIWPWEEWAFVLDLPKWAPKRVFVQEILQREVRLSYWDKIKQSIENATALEELLPPKAGPNFMYSLEEGKEKTEEQQLSAELSRKVKEKQTARDMIVWIEETIYPVHGFEVTLTIVVQTLLDIGSKSFTHLVTVLERYGQVFSKLCPDNDKQVMLLSQVSTYWKNNVQMTAVAIDRMMGYRLVSNQAIVRWVFSPENVDQFHVSDQPWEILGNALNKTYNRISDLRKDISNITKNVLVAEKASANARVELEAAESKLSLVEGEPVLGENPAKMKRLKSTVEKTGEAELSLRESLEAKEALLNRALSETEVLLLLLFQSFLGVLKERLPDPTKVRSVQDLKSIGAEDDKPSAMDVDSENGNPKKSCEVGEREQWCLSTLGYLTAFTRQYASEIWPHMEKLESEVFSGEDVHPLFLQAISSALQFPLH
# B2: unknown protein, DUF1726 (AT1G10490) (protein, UniProt Q9XIK4 1-1028)
# chain: MRKKVDERIRTLIENGVKLRHRSMFVIIGDKARDQIVNLHHILSKSVVKSNPSVLWCYKNRLDISSHNKKRAKQLKKMKERGQLDPEKLDAFSLFLDVVDVTHCLYKDSERILGNTFGICILQDFEALTPNLLARTIETVEGGGLVVLLLQSLASLTSLCTMVMDVHDRFRTESHSEASGRFNERFLLSLASCKACVVMDDELNLLPLSSHIKSITKVPTKEDSEALSEAERDLKSLKDALNDDFPVGPLINKCCTLDQGKAVVTFFDAILDKTLRSIVALIASRGRGKSAALGLAVAGAVAAGYSNIYVTAPSPDNLKTVFEFVCKGFDALEYKEHLEYDVVRSVNPEFNKAIVRINIFKQHRQTIQYIQPHEHEKLSQVELLVIDEAAAIPLPVVKSLLGPYLVFLSSTVSGYEGTGRSLSLKLLQQLEEQSRAPVTGVEGSLSGCLFKKIELSESIRYASGDPIESWLNGLLCLDVANCLPNPACHPLPSQCDLYYVNRDTLFSYHKDSELFLQRMMALCVSSHYKNSPNDLQLLSDAPAHHLFVLLGPVDESKNQLPDILCVIQVCLEGQISRKSAEKSLREGHSPHGDQIPWKFCEQFRDVVFPKLSGARIVRIAVHPNAMKMGYGSAAVELLTRYFEGQLASISEGDDELEVEPSPVRVTEAAAKVSLLEEQIKPRANLPPLLVPLRDRRPERLHYIGVSFGLTLDLFRFWRKHKFAPFYISQIPSAVTGEHTCMLLKPLTLSNDEFEVDESDELGFFAPFYKDFRIRFSKLLSDKFKKMDYKLAMSVLNPKINFPEVDLTGNSPDGFLKKLDGVLSPYDMERFRAYTANLVDFNLVYDICKTLAHHYFQEKLPVSLSYVQASVLLCLGLQESDFSSIERQMQLERGQIYSLLLKVGKKLYKYLNGIATKELESTLPRLKDRVLEPHKVSVDEDLREGAKEVEEQMRARIEELLDPELLDQFAIGDKEAEALQKSKISSSGLISIESTKTDNKKEKPSGFDKSAKKRGNDKHSSTSNKKRRA
# B3: NUCLEOLAR COMPLEX ASSOCIATED 4 (protein, UniProt F4IMH3 1-577)
# chain: MASILSKKQKKNEKYTLKELKSLGHDLLTSRSHINNLPLLLTFVSPESPPQFVVESLLSLQSFFTPLLSQLPPTSSSPSSTKTEDPEVVFKAWLRSKFDEFVKLLLDVLVSQQSEDSLRGIVLGTLMEFVKLLNAGRFHSSIYHRLLDAIIHSEVDIEIFLDILTSKYFKYIDVRYFTYISMEKFVKTLEASVSADRTVIENNEAESDSKESLELSVRKIYQVLSQIPPPEKQAEKSQHEMWSGSDESISEKPTDKKKKTEKGDSTLLSPATISKRMKLKFTKAWISFLRLPLPIDVYKEVLASIHLTVIPHLSNPTMLCDFLTKSYDIGGVVSVMALSSLFILMTQHGLEYPFFYEKLYALLVPSVFVAKHRAKFLQLLDACLKSSMLPAYLAASFTKKLSRLSLSIPPAGSLVITALIYNLLRRNPTINHLVQEIVENADEANTEAGEHNESQPKTIKKRKLGIDYFNNQESDPKKSGALKSSLWEIDTLRHHYCPPVSRFISSLETNLTIRSKTTEMKIEDFCSGSYATIFGDEIRRRVKQVPLAFYKTVPTSLFADSDFPGWTFTIPQEEGTC
# B4: SLOW WALKER1 (protein, UniProt O82266 1-530)
# chain: MEEELRVRLNDHQVSKVFPVKPKSTAKPVSESETPESRYWSSFKNHSTPNLVSSVAALAFSPVHPHSLAVAHSATVSLFSSQSLSSSRRFSFRDVVSSVCFRSDGALFAACDLSGVVQVFDIKERMALRTLRSHSAPARFVKYPVQDKLHLVSGGDDGVVKYWDVAGATVISDLLGHKDYVRCGDCSPVNDSMLVTGSYDHTVKVWDARVHTSNWIAEINHGLPVEDVVYLPSGGLIATAGGNSVKVWDLIGGGKMVCSMESHNKTVTSLRVARMESAESRLVSVALDGYMKVFDYGRAKVTYSMRFPAPLMSLGLSPDGSTRVIGGSNGMVFAGKKKVRDVVGGQKKSLNLWSLISDVDESRRRALRPTYFRYFQRGQSEKPSKDDYLVKEKKGLKLTRHDKLLKKFRHKEALVSVLEEKKPANVVAVMEELVARRKLMKCVSNMEEGELGMLLGFLQRYCTVQRYSGLLMGLTKKVLETRAEDIKGKNEFKGLLRNLKREVNQEIRIQQSLLEIQGVIAPLMRIAGRS
# B5: … NUCLEAR PROTEIN 1 (protein, UniProt Q8RWS4 1-444)
# chain: MAKKRDRIVNTQPFISDDASVASSRKRSKVPKTHQKQEKLIEAGMSEKIMKQALAQQKEVADEENAERNPSSAAFAVAGAATAGEEQKILEEEEDDIDDFDGTFENQSQFDKQEEINEDDEKLFESFLNKNAPPQRTLTDIIIKKLKDKDADLAEEERPDPKMDPAITKLYKGVGKFMSEYTVGKLPKAFKLVTSMEHWEDVLYLTEPEKWSPNALYQATRIFASNLKDRQVQRFYNYVLLPRVREDIRKHKKLHFALYQALKKSLYKPSAFNQGILFPLCKSGTCNLREAVIIGSILEKCSIPMLHSCVALNRLAEMDYCGTTSYFIKVLLEKKYCMPYRVLDALVAHFMRFVDDIRVMPVIWHQSLLTFVQRYKYEILKEDKEHLQTLLQRQKHHLVTPEILRELKDSRNRGEKEDPMVDNFAPVPAKEDRFDIPEVPMEED
# B6: FK506 BINDING PROTEIN 53 (protein, UniProt Q93ZG9 1-477)
# chain: MGFWGLEVKPGKPQAYNPKNEQGKIHVTQATLGTGLSKEKSVIQCSIGDKAPIALCSLLPNKIECCPLNLEFDDDDEPVEFTVTGDRSIHLSGFLEYYQDDEDDYEHDEDDSDGIDVGESEEDDSCEYDSEEDEQLDEFEDFLDSNLERYRNAAAPKSGVIIEEIEDEEKPAKDNKAKQTKKKSQASEGENAKKQIVAIEGAHVPVLESEDEDEDGLPIPKGKSSEVENASGEKMVVDNDEQGSNKKRKAKAAEQDDGQESANKSKKKKNQKEKKKGENVLNEEAGQVQTGNVLKKQDISQISSNTKAQDGTANNAMSESSKTPDKSAEKKTKNKKKKKPSDEAAEISGTVEKQTPADSKSSQVRTYPNGLIVEELSMGKPNGKRADPGKTVSVRYIGKLQKNGKIFDSNIGKSPFKFRLGIGSVIKGWDVGVNGMRVGDKRKLTIPPSMGYGVKGAGGQIPPNSWLTFDVELINVQ
# Molecular target: T1, HEN2-GFP (Arabidopsis thaliana)
# Experiment: affinity purification with mass spectrometry; HEN2-GFP (hen2 background) extracted from flowers, held on anti-GFP magnetic microparticles (MACS), 50 mM NaCl; LC-MS/MS; duplicates crossed, proteins of mock IPs excluded
row,binding,Binder
1,binds,B1

# Molecular target: T2, AtMTR4-GFP (Arabidopsis thaliana)
# Experiment: affinity purification with mass spectrometry; AtMTR4-GFP (own promoter, mtr4 background) extracted from flowers, held on anti-GFP magnetic microparticles (MACS), SDS omitted from washing buffers; LC-MS/MS; triplicates crossed, proteins of mock IPs excluded
row,binding,Binder
1,binds,B2
2,binds,B3
3,binds,B4
4,binds,B5
5,binds,B6
